In PMC8384837 one finds binding signal (log2 enrichment (interaction score)) data, which are given here for 18 sequences.

Where a chain is given by its changes, count along the chain named. Some of the results follow. For some assays here: At the low end of the ranking the order means little. For some assays here: The source does not settle which construct or isoform was used.

Common to all, as to conditions: yeast three-hybrid, YBZ-1, SC-Leu-His + 0.5 mM 3-AT, 4 days
For assay [1], the target named is T1, PUM1 PUF domain R3-THE R4-TFR C935T + R936H + Q939E + N971T + H972F + Q975R (UniProt Q14671).
T1 sequence: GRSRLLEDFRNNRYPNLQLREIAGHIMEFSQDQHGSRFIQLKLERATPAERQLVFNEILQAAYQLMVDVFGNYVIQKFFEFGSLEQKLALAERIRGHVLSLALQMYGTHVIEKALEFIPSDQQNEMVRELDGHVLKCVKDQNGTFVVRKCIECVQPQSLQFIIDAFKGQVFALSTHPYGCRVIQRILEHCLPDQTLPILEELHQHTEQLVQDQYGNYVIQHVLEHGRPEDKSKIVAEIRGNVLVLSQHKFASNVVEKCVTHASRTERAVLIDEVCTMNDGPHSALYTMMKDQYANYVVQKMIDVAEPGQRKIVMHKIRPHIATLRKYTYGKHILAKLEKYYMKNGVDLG

Assay [2] has as its target T2, PUM1 PUF domain R5-PHQ R6-SWD C1007P + R1008H + N1043S + Y1044W + Q1047D (UniProt Q14671).
T2 sequence: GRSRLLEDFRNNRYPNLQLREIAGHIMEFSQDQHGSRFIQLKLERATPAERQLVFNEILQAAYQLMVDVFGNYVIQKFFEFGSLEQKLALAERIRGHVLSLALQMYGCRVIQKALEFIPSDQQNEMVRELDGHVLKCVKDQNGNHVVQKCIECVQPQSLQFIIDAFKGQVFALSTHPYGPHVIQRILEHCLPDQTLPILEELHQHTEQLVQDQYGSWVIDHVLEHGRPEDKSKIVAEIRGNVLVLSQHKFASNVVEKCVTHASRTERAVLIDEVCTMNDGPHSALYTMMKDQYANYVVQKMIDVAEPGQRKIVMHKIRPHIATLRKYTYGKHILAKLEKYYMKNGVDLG

The target of assay [3] is T3, PUM1 PUF domain R6-SWD R7-NPG N1043S + Y1044W + Q1047D + S1079N + N1080P + E1083G (Homo sapiens) (UniProt Q14671).
T3 sequence: T2 sequence with P180C, H181R, S252N, N253P, E256G

The target of assay [4] is T4, PUM1 PUF domain R3-THE R4-TFR R7-NPG C935T + R936H + Q939E + N971T + H972F + Q975R + S1079N + N1080P + E1083G (Homo sapiens) (UniProt Q14671).
T4 sequence: T1 sequence with S252N, N253P, E256G

Assay [5] concerns the target T5, PUM1 PUF domain R5-PHQ R6-SWD C1007P + R1008H + N1043S + Y1044W + Q1047D (Homo sapiens) (UniProt Q14671).
T5 sequence: T2 sequence

“GGCUAGAACUAGUGGAUCCCCCGGCGCCCGGCGGCUCGAGCCCGGGUAAGUGCAGGUAGUCUGCAUGCCGCCGGGCGCCAUGCCUGCAGGUCGACUCUAGAAAACAUG”: the binding signal (log2 enrichment (interaction score)) in assay [1] was -6.96; in assay [2], < -6.89; in assay [3] it was -1.11.

As to “GGCUAGAACUAGUGGAUCCCCCGGCGCCCGGCGGCUCGAGCCCGGGUAAGCUUACGGAGUCUGCAUGCCGCCGGGCGCCAUGCCUGCAGGUCGACUCUAGAAAACAUG”, the binding signal (log2 enrichment (interaction score)) in assay [4] worked out at 5.57.

For the sequence “GGCUAGAACUAGUGGAUCCCCCGGCGCCCGGCGGCUCGAGCCCGGGUAAGGUUUAUUUGUCUGCAUGCCGCCGGGCGCCAUGCCUGCAGGUCGACUCUAGAAAACAUG”, in assay [4], the binding signal (log2 enrichment (interaction score)) was -1.3.

On to “GGCUAGAACUAGUGGAUCCCCCGGCGCCCGGCGGCUCGAGCCCGGGUAAGUUAAAGAGGUCUGCAUGCCGCCGGGCGCCAUGCCUGCAGGUCGACUCUAGAAAACAUG”, for which, in assay [4], the binding signal (log2 enrichment (interaction score)) is -1.21.

Regarding “GGCUAGAACUAGUGGAUCCCCCGGCGCCCGGCGGCUCGAGCCCGGGUAAGGUUGGAGCGUCUGCAUGCCGCCGGGCGCCAUGCCUGCAGGUCGACUCUAGAAAACAUG”, the binding signal (log2 enrichment (interaction score)) in assay [4] was -0.87.

On to “GGCUAGAACUAGUGGAUCCCCCGGCGCCCGGCGGCUCGAGCCCGGGUAAGCUUCAAAAGUCUGCAUGCCGCCGGGCGCCAUGCCUGCAGGUCGACUCUAGAAAACAUG”, for which, in assay [4], the binding signal (log2 enrichment (interaction score)) is < -1.79.

On to “GGCUAGAACUAGUGGAUCCCCCGGCGCCCGGCGGCUCGAGCCCGGGUAAGUGUUCGAAGUCUGCAUGCCGCCGGGCGCCAUGCCUGCAGGUCGACUCUAGAAAACAUG”, for which the binding signal (log2 enrichment (interaction score)) in assay [1] is -6.08; in assay [3], -0.7.

As for “GGCUAGAACUAGUGGAUCCCCCGGCGCCCGGCGGCUCGAGCCCGGGUAAGACUACGUAGUCUGCAUGCCGCCGGGCGCCAUGCCUGCAGGUCGACUCUAGAAAACAUG”, the binding signal (log2 enrichment (interaction score)) in assay [4] was -1.29; in assay [2] it was < -7.64.

Regarding “GGCUAGAACUAGUGGAUCCCCCGGCGCCCGGCGGCUCGAGCCCGGGUAAGGAUACAUAGUCUGCAUGCCGCCGGGCGCCAUGCCUGCAGGUCGACUCUAGAAAACAUG”, the values for the binding signal (log2 enrichment (interaction score)) in assay [1] and in assay [3] were < -6.74 and -0.24, respectively.

As to “GGCUAGAACUAGUGGAUCCCCCGGCGCCCGGCGGCUCGAGCCCGGGUAAGUUUACGACGUCUGCAUGCCGCCGGGCGCCAUGCCUGCAGGUCGACUCUAGAAAACAUG”, the figures for the binding signal (log2 enrichment (interaction score)) in assay [1] and in assay [3] were -6.14 and -0.48, respectively.

On to “GGCUAGAACUAGUGGAUCCCCCGGCGCCCGGCGGCUCGAGCCCGGGUAAGUCUCAAAAGUCUGCAUGCCGCCGGGCGCCAUGCCUGCAGGUCGACUCUAGAAAACAUG”, for which the binding signal (log2 enrichment (interaction score)) in assay [4] is < -1.97; in assay [2] it was -7.05.

As for “GGCUAGAACUAGUGGAUCCCCCGGCGCCCGGCGGCUCGAGCCCGGGUAAGCUGAUGUGGUCUGCAUGCCGCCGGGCGCCAUGCCUGCAGGUCGACUCUAGAAAACAUG”, the binding signal (log2 enrichment (interaction score)) in assay [1] was -6.75; in assay [3], -1.82.

With “GGCUAGAACUAGUGGAUCCCCCGGCGCCCGGCGGCUCGAGCCCGGGUAAGUAGCGGUAGUCUGCAUGCCGCCGGGCGCCAUGCCUGCAGGUCGACUCUAGAAAACAUG”, the figures for the binding signal (log2 enrichment (interaction score)) in assay [4] and in assay [2] were < -1.95 and < -8.02, respectively.

In the case of “GGCUAGAACUAGUGGAUCCCCCGGCGCCCGGCGGCUCGAGCCCGGGUAAGUGUAAUAGGUCUGCAUGCCGCCGGGCGCCAUGCCUGCAGGUCGACUCUAGAAAACAUG”, the binding signal (log2 enrichment (interaction score)) in assay [1] is -7.19; in assay [3], -1.48.

As for “GGCUAGAACUAGUGGAUCCCCCGGCGCCCGGCGGCUCGAGCCCGGGUAAGAUCUAAUCGUCUGCAUGCCGCCGGGCGCCAUGCCUGCAGGUCGACUCUAGAAAACAUG”, the binding signal (log2 enrichment (interaction score)) is -1.55 in assay [4] and < -8.82 in assay [2].

As to “GGCUAGAACUAGUGGAUCCCCCGGCGCCCGGCGGCUCGAGCCCGGGUAAGUAGAACUCGUCUGCAUGCCGCCGGGCGCCAUGCCUGCAGGUCGACUCUAGAAAACAUG”, the binding signal (log2 enrichment (interaction score)) was -7.23 in assay [1], -7.18 in assay [2] and -1.25 in assay [3].

In the case of “GGCUAGAACUAGUGGAUCCCCCGGCGCCCGGCGGCUCGAGCCCGGGUAAGUUGUAGACGUCUGCAUGCCGCCGGGCGCCAUGCCUGCAGGUCGACUCUAGAAAACAUG”, the binding signal (log2 enrichment (interaction score)) in assay [4] was < -1.51.

Regarding “GGCUAGAACUAGUGGAUCCCCCGGCGCCCGGCGGCUCGAGCCCGGGUAAGUGGAAUAGGUCUGCAUGCCGCCGGGCGCCAUGCCUGCAGGUCGACUCUAGAAAACAUG”, the binding signal (log2 enrichment (interaction score)) is -1.49 in assay [4] and -1.31 in assay [5].
